Measurements as given in US6455075B1, “Method for control of insects on plants and plant tissue” (priority 1996, dated 2002).

What was measured:
[1] = 1% solution
cut flower = settings: 500 PPM in cut flower water, two weeks

SMILES: OO [hydrogen peroxide]
- residue in the boxes [1]: no residue
- clarity of the water (cut flower): remained clear
- condition of the flowers (cut flower): excellent condition with only slight neck droop observed
